# In PubChem BioAssay AID2685 (National Center for Advancing Translational Sciences (NCATS), 2010):
# The list shows a part of the results. Shown are side measurements of this screen, not its main read-out; they come without a call. The list favours compounds with an active or inconclusive main result. Potencies come from curve fits of mixed quality, noted in brackets.
# Test: qHTS Assay for Lipid Storage Modulators in Drosophila S3 Cells;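 for cell number change: cells counted by Cell Tracker Red CMTPX staining in the red channel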
# Settings: BODIPY lipid droplet fluorescence, 18-24 h; for cell number change: measured here: cell count max response, cells fed with added oleic acid
# In short: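 Laser-scanning cytometry quantifies lipid droplet accumulation (500–530 nm total intensity; droplet/cell object ratio) in oleic acid-fed (400 uM added) Drosophila S3 cells treated with a concentration series. 20 uM Triacsin C defined 100% inhibition.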
# [1] = measured here: lipid fluorescence (Fed channel) AC50, cells fed with added oleic acid
# [2] = measured here: cell number channel AC50, cells fed with added oleic acid
SMILES,cell number change,AC50 [1],AC50 [2]
CN(CCOC(=O)/C=C/c1ccco1)Cc1ccccc1,3.06%,"6.51 µM [falling, single point]",–
CCCn1c(SCC(=O)Nc2ccc3c(c2)OCCO3)nnc1-c1ccco1,-18.2%,"0.00461 µM [rising, full curve, poor fit]",–
COc1ccc(O[C@H]2C=C[C@@H](c3ccccc3)O[C@@H]2COC(=O)CC/C(C)=N/OC[C@@H](O)[C@H]2O[C@@H]3OC(C)(C)O[C@@H]3[C@H]2O)cc1,–,"20.6 µM [rising, partial curve]",–
CCCCC(=O)NC(Nc1nc(C2CC2)cs1)(C(=O)OCC)C(F)(F)F (stereo unspecified),-68.9%,"6.51 µM [falling, partial curve]","5.17 µM [falling, partial curve]"
O=C(CN(Cc1ccccc1F)C(=O)Cn1nnc(-c2cccs2)n1)NCC1CCCO1 (stereo unspecified),-34.2%,–,"29.1 µM [falling, single point]"
O=C(Nc1ccncc1NC(=O)c1cccc([N+](=O)[O-])c1)c1cccc([N+](=O)[O-])c1,41.1%,"5.8 µM [rising, full curve, poor fit]","0.58 µM [rising, full curve]"
O=C(NCc1ccccc1)c1cc(=O)c2ccccc2o1,-17.6%,–,–
Cc1ccc(/C=C/c2nc3ccccc3c(=O)n2CCc2ccccc2)cc1,14.8%,"0.146 µM [rising, full curve, poor fit]",–
COc1ccc(-c2cc(C)no2)cc1S(=O)(=O)N1CCOc2ccc(Cl)cc21,66.9%,–,"29.1 µM [rising, single point]"
CC(C)OCCCNS(=O)(=O)c1ccc2c(c1)oc(=O)n2C,3.52%,"1.64 µM [falling, partial curve]",–
CCCCOc1cc(C)nc(NCc2ccccc2)n1,-36.9%,"20.6 µM [falling, partial curve]","1.84 µM [falling, full curve]"
COc1ccc2c(c1)c1nnc(SC)nc1n2C,23.9%,–,"0.731 µM [rising, full curve, poor fit]"
O=C(NCc1ccc(Cl)cc1)c1cccc2c1C(=O)N(CC1CCCO1)C2 (stereo unspecified),-14.1%,–,–
COc1ccc(-c2nc(=S)n3ccsc3n2)cc1OC,4%,–,"0.164 µM [rising, full curve]"
NC(=O)c1ccc[n+](CC(=O)c2ccc(Cl)c(Cl)c2)c1,96.5%,–,"10.3 µM [rising, partial curve]"
CC(C)c1ccc(NC(=O)CN2C(=O)COc3ccc(S(=O)(=O)N4CCOCC4)cc32)cc1,–,"5.17 µM [rising, single point]",–
CNC(=O)C1C2C=CC3(O2)C1C(=O)N(C1CC1)C3C(=O)NCc1ccc(OC)cc1 (stereo unspecified),–,"5.17 µM [falling, partial curve]",–
CC(C)COc1ccc(CNC(=S)N/N=C/c2ccc([N+](=O)[O-])cc2)cc1,-30.6%,"14.6 µM [falling, partial curve]","4.11 µM [falling, full curve, poor fit]"
CC(OC(=O)c1ccc(NC(=O)CC#N)cc1)C(=O)Nc1ccc2c(c1)OCCO2 (stereo unspecified),11.4%,"1.64 µM [rising, partial curve, poor fit]",–

SMILES,cell number change,AC50 [1],AC50 [2]
CCSC1=C(C#N)C(c2ccc(Cl)cc2)C2=C(CCCC2=O)N1 (stereo unspecified),10.5%,"11.6 µM [rising, partial curve, poor fit]","1.46 µM [rising, partial curve]"
COc1cccc(-n2c(SCC(N)=O)nc3ccccc3c2=O)c1,-4.15%,–,"0.092 µM [falling, full curve, poor fit]"
CCCS(=O)(=O)N1CCC(C(=O)NCCN2CCCC2)CC1,-134%,"16.4 µM [falling, partial curve]","16.4 µM [falling, partial curve]"
CCOc1cc(/C=N\NC(N)=O)cc(Br)c1OC(C)C,8.11%,"0.082 µM [rising, partial curve, poor fit]",–
Cc1ccc(/C=N/NC(=O)c2csc3c2CCCC3)cc1,–,"29.1 µM [falling, single point]",–
CC1=NN(C(=O)Cc2ccc([N+](=O)[O-])cc2)C(O)(c2cccnc2)C1 (stereo unspecified),-24%,"0.116 µM [rising, full curve, poor fit]",–
CC(=O)Nc1ccc(S(=O)(=O)N(C)CC(=O)N/N=C/c2cccc(O)c2)cc1,5.51%,"16.4 µM [rising, single point]",–
COCCn1c(N)c(C(=O)NCc2cccs2)c2nc3ccccc3nc21,-48.1%,"0.13 µM [rising, partial curve, poor fit]","16.4 µM [falling, single point]"
Cc1nc2ccccc2cc1C(=O)N(C)Cc1ccccc1,1.35%,"0.231 µM [rising, full curve]",–
COc1ccccc1CNS(=O)(=O)c1ccc(-c2cc(C)no2)cc1,8.49%,"3.26 µM [rising, single point]",–
Cc1ccc(-c2c3c(=O)n(C)c(=O)n(C)c3cn2N2CCOCC2)cc1,17.8%,–,–
COc1ccc2oc(=N)c(C(=O)Nc3cccc(C)c3C)cc2c1,12.3%,"29.1 µM [rising, single point]",–
CCCC1=Nc2cc(C(=O)NCCCOCC)ccc2Sc2ccccc21,2.58%,–,–
O=C(N/N=C/c1ccc([N+](=O)[O-])o1)c1cccc(S(=O)(=O)N2CCOCC2)c1,-50.2%,"6.51 µM [falling, full curve]","13 µM [falling, partial curve, poor fit]"
Nc1c(Cl)cc(C2=NCCn3c2c2ccccc2[n+]3[O-])cc1Cl,-21.7%,"29.1 µM [falling, partial curve, poor fit]","0.184 µM [falling, full curve, poor fit]"
O=C(CCCCC(=O)N1CCN(c2ccccc2)CC1)N1CCN(c2ccccc2)CC1,-6.42%,–,–
Cc1cc(C(=O)COC(=O)C2=NNC(=O)CC2)c(C)n1-c1cccc(C(F)(F)F)c1,-50.5%,"1.84 µM [falling, full curve, poor fit]","7.31 µM [falling, partial curve, poor fit]"
Cc1nn(CCC(=O)NNC(=S)NCC(C)C)c(C)c1Br,–,"6.51 µM [rising, single point]","6.51 µM [rising, single point]"
CCOCCN(C(=O)c1ccccc1Cl)c1ccccc1,-34.9%,–,"2.59 µM [rising, single point]"

# 14 consecutive records from above:
SMILES,cell number change,AC50 [1],AC50 [2]
COc1cccc(-n2c(SCC(N)=O)nc3ccccc3c2=O)c1,-4.15%,–,"0.092 µM [falling, full curve, poor fit]"
CCCS(=O)(=O)N1CCC(C(=O)NCCN2CCCC2)CC1,-134%,"16.4 µM [falling, partial curve]","16.4 µM [falling, partial curve]"
CCOc1cc(/C=N\NC(N)=O)cc(Br)c1OC(C)C,8.11%,"0.082 µM [rising, partial curve, poor fit]",–
Cc1ccc(/C=N/NC(=O)c2csc3c2CCCC3)cc1,–,"29.1 µM [falling, single point]",–
CC1=NN(C(=O)Cc2ccc([N+](=O)[O-])cc2)C(O)(c2cccnc2)C1 (stereo unspecified),-24%,"0.116 µM [rising, full curve, poor fit]",–
CC(=O)Nc1ccc(S(=O)(=O)N(C)CC(=O)N/N=C/c2cccc(O)c2)cc1,5.51%,"16.4 µM [rising, single point]",–
COCCn1c(N)c(C(=O)NCc2cccs2)c2nc3ccccc3nc21,-48.1%,"0.13 µM [rising, partial curve, poor fit]","16.4 µM [falling, single point]"
Cc1nc2ccccc2cc1C(=O)N(C)Cc1ccccc1,1.35%,"0.231 µM [rising, full curve]",–
COc1ccccc1CNS(=O)(=O)c1ccc(-c2cc(C)no2)cc1,8.49%,"3.26 µM [rising, single point]",–
Cc1ccc(-c2c3c(=O)n(C)c(=O)n(C)c3cn2N2CCOCC2)cc1,17.8%,–,–
COc1ccc2oc(=N)c(C(=O)Nc3cccc(C)c3C)cc2c1,12.3%,"29.1 µM [rising, single point]",–
CCCC1=Nc2cc(C(=O)NCCCOCC)ccc2Sc2ccccc21,2.58%,–,–
O=C(N/N=C/c1ccc([N+](=O)[O-])o1)c1cccc(S(=O)(=O)N2CCOCC2)c1,-50.2%,"6.51 µM [falling, full curve]","13 µM [falling, partial curve, poor fit]"
Nc1c(Cl)cc(C2=NCCn3c2c2ccccc2[n+]3[O-])cc1Cl,-21.7%,"29.1 µM [falling, partial curve, poor fit]","0.184 µM [falling, full curve, poor fit]"

# Remaining list, next part

SMILES,cell number change,AC50 [1],AC50 [2]
c1ccc(N2CCCCC2)c(Nc2nc3ccccc3n3cnnc23)c1,-8.32%,"1.64 µM [rising, partial curve, poor fit]",–
CC(=O)c1cc2c(cc1NC(=O)CN1CCOCC1)OCO2,-2.7%,"3.26 µM [rising, partial curve, poor fit]",–
Cc1ccc2c(=O)cc(C(=O)NCc3ccccc3)oc2c1C,12.3%,"2.06 µM [rising, full curve]",–
COc1ccc(NC(=O)CN(Cc2ccccc2)S(C)(=O)=O)cc1,-44.8%,"23.1 µM [rising, single point]","9.2 µM [falling, partial curve, poor fit]"
CCCC(C)NC(=O)CSc1nc2ccc(C)cc2[nH]1 (stereo unspecified),22.6%,–,"3.26 µM [rising, single point]"
O=C(COc1ccc2ccccc2c1Br)N1CCN(c2ccccn2)CC1,-15.4%,"1.84 µM [rising, partial curve]",–
CC(=O)/C=C(\C)Nc1c(C)n(C)n(-c2ccccc2)c1=O,-61.6%,"29.1 µM [falling, single point]","32.6 µM [falling, single point]"
NS(=O)(=O)c1ccc(CCNC(=O)C2CCCN2S(=O)(=O)c2cccc3nsnc23)cc1 (stereo unspecified),-3.8%,"0.00461 µM [falling, full curve, poor fit]",–
O=C(O)CC(CC(=O)Nc1ccc(Oc2ccccc2)cc1)c1ccccc1 (stereo unspecified),1.72%,"3.66 µM [rising, single point]",–
CCOC(=O)c1c(N)n(CC(C)NC(=O)C2CC2)c2nc3ccccc3nc12 (stereo unspecified),4.93%,"0.103 µM [falling, full curve, poor fit]",–
CCOCc1c(C(=O)N2CCN(Cc3ccc(Br)s3)CC2)oc2ccccc12,-2.19%,"0.058 µM [falling, full curve, poor fit]",–
Cc1ccc(S(=O)(=O)N2CCN(C(=O)COC(=O)c3cnc(C)cn3)CC2)c(C)c1,-31.4%,"23.1 µM [falling, partial curve]","23.1 µM [falling, single point]"
O=C(COc1ccccc1)N1CCN(C(=O)c2ccccc2F)CC1,23.8%,–,"0.13 µM [rising, full curve, poor fit]"
CCS(=O)(=O)c1nc(NC(C)=O)n[nH]1,4.4%,–,–
Cc1ccc(NC(=O)C(c2ccccc2)N(C)C)cc1Cl (stereo unspecified),–,–,"0.461 µM [falling, single point]"
CN(C)C(CNC(=O)C1CCN(C(=O)/C=C/c2ccccc2)CC1)c1ccccc1 (stereo unspecified),11.8%,–,"0.206 µM [rising, full curve, poor fit]"
COc1ccc(C(=O)NC(C)c2ccccc2)cc1Br (stereo unspecified),39.2%,"6.51 µM [falling, single point]","20.6 µM [rising, single point]"
COc1ccc(Nc2ccc(S(=O)(=O)N3CCCCC3)cc2[N+](=O)[O-])cc1OC,-66.6%,"16.4 µM [falling, partial curve]","25.9 µM [falling, single point]"
